Measurements: US20200010560A1
Results are given in words; binding and its absence hold for the method and conditions named. Some binding calls cover weakened binding; strength is not graded here. For part of these data: Sequences can lack the tags named with a protein.

Columns and labels:
[1] = target: T1, recombinant protein comprising the extracellular domain of 5T4 with a C-terminal enterokinase cleavage sequence, myc epitope and a six histidine tag (human) (UniProt Q13641); assay: ELISA on recombinant 5T4 extracellular domain
T1 sequence (looked up): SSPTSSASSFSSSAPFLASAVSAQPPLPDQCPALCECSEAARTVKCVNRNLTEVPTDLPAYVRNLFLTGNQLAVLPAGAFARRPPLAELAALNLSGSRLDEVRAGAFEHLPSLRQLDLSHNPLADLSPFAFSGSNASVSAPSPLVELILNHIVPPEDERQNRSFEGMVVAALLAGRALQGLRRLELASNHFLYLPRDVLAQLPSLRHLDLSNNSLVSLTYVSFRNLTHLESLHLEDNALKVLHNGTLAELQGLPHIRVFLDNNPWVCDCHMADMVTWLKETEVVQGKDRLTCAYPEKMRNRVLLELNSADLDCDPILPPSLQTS

[2] = target: T1, recombinant protein comprising the extracellular domain of 5T4 with a C-terminal enterokinase cleavage sequence, myc epitope and a six histidine tag (human); assay: western blot, reduced and unreduced 5T4 protein
[3] = target: T1, recombinant protein comprising the extracellular domain of 5T4 with a C-terminal enterokinase cleavage sequence, myc epitope and a six histidine tag (human); assay: western blot
[4] = target: T2, 5T4 on human tumour cells (human) (UniProt Q13641); assay: flow cytometry on disaggregated ovarian tumour cells
T2 sequence (looked up): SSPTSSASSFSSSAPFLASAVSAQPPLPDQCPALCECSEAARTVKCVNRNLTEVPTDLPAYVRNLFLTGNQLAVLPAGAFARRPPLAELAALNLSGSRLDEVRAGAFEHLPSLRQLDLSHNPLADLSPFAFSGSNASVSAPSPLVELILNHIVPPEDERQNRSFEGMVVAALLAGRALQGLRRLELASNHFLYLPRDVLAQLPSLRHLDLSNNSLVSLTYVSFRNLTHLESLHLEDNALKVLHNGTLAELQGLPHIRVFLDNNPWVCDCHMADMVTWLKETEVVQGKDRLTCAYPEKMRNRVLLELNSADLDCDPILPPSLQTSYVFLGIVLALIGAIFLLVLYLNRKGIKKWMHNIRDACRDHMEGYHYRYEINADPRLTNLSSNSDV

[5] = target: T2, 5T4 on human tumour cells (human); assay: flow cytometry with PE-conjugated H8 on myeloma cell lines

Measured: binding

B1: 2E4 antibody (anti-5T4 mouse monoclonal antibody) (antibody)
scFv: MEVQLQQSGPELVKPGASVKISCKASGYSFTGYYMHWVKQSHVKSLEWIGRINPYNGATTYNQDFKDKASLTVDKSSSTASMELHSLTSEDSAVYYCALSTMITTAWFAYWGQGTLVTVSPGGGGSGGGGTGGGGSNFVMTQTPKFLLASAGDRVTISCKASQSVSNDVGWYQQKPGQSPKLLIYFASNRYTGVPDRFIGSGYGTDFTFTISTVQAEDLAVYFCQQDYSSPFTFGSGTKLEIK
binds: [1] | [2] | [3] | [4]

B2: anti-5T4 H8 murine monoclonal antibody (antibody)
scFv: MEVQLQQSGPDLVKPGASVKISCKASGYSFTGYYMHWVKQSHGKSLEWIGRINPNNGVTLYNQKFKDKAILTVDKSSTTAYMELRSLTSEDSAVYYCARSTMITNYVMDYWGQVTSVTVSSGGGGSGGGGTGGGGSSIVMTQTPTFLLVSAGDRVTITCKASQSVSNDVAWYQQKPGQSPTLLISYTSSRYAGVPDRFIGSGYGTDFTFTISTLQAEDLAVYFCQQDYNSPPTFGGGTKLEIKR
binds: [5] | [4]
